Reference: the supplement of paper PMC7877785
± gives the uncertainty stated by the source. The uncertainty is large for many entries.

Experiment: self-splicing fitness, log relative to wild type (ln ratio); higher = more splicing; Tetrahymena group I intron in knt gene, E. coli kanamycin selection, DiMSum; sequences stand for … in CUCUCU…GGAGGGAAAAGUUAUCAGGCAUGCACCUGGUAGCUAGUCUUUAAACCAAUAGAUUGCAUCGGUUUAAAAGGCAAGACCGUCAAAUUGCGGGAAAGGGGUCAACAGCCGUUCAGUACCAAGUCUCAGGGGAAACUUUGAGAUGGCCUUGCAAAGGGUAUGGUAAUAAGCUGACGGACAUGGUCCUAACCACGCAGCCAAGUCCUAAGUCAACAGAUCUUCUGUUGAUAUGGAUGCAGUUCACAGACUAAAUGUCGGUCGGGGAAGAUGUAUUCUUCUCAUAAGAUAUAGUCGGACCUCUCCUUAAUGGGAGCUAGCGGAUGAAGUGAUGCAACACUGGAGCCGCUGGGAACUAAUUUGUAUGCGAAAGUAUAUUGAUUAGUUUUGGAGUACUCGUGGUCG
Method in brief: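 Pooled colonies went to amplicon sequencing on an Illumina HiSeq 2500 after six replicate transformations. The plates were LB agar with 100 μg/mL carbenicillin, 50 μM IPTG and 0.2% rhamnose, with or without 25 μg/mL kanamycin, incubated overnight at 37°C or 30°C. The E. coli BL21(DE3) library had all eight P1ex-region intron nucleotides randomised, the intron placed in the knt kanamycin-resistance gene on pET-22b(+). DiMSum fitness is the error-weighted combination of replicate fold changes, kanamycin against none, normalised to wild type.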

Row | Sequence | self-splicing fitness (ln) (30 °C) | self-splicing fitness (ln) (37 °C)
1 | GACGAGCAAUAUUACGUUAA | -3.77 ± 0.27 | -2.79 ± 0.25
2 | UUCAAGCAAUAUUACGUCGA | -0.383 ± 0.078 | -0.0975 ± 0.087
3 | CCGGAGCAAUAUUACGAUCC | – | -1.13 ± 0.87
4 | GAUGAGCAAUAUUACGCAGG | -3.18 ± 0.52 | –
5 | UAUAAGCAAUAUUACGCGGC | -3.53 ± 0.35 | -2.92 ± 0.47
6 | CGCGAGCAAUAUUACGGAGC | -5.17 ± 1 | –
7 | GAAGAGCAAUAUUACGUCCC | -2.04 ± 0.87 | -0.44 ± 1
8 | GGAGAGCAAUAUUACGCCCG | -1.9 ± 0.63 | -1.57 ± 0.61
9 | UGGGAGCAAUAUUACGAAGC | -4.46 ± 0.6 | -2.03 ± 0.81
10 | CUUUAGCAAUAUUACGGCGA | – | -1.99 ± 0.5
11 | AGACAGCAAUAUUACGAAAC | -3.76 ± 0.27 | -2.66 ± 0.34
12 | GUACAGCAAUAUUACGCAUC | -3.74 ± 0.23 | -1.36 ± 0.19
13 | CCUCAGCAAUAUUACGAACC | -3.12 ± 1.1 | -1 ± 0.65
14 | UAUGAGCAAUAUUACGACUC | -4.17 ± 1.1 | -2.18 ± 0.6
15 | CGGAAGCAAUAUUACGGAAG | -4.64 ± 0.59 | –
16 | GAGUAGCAAUAUUACGGCAG | -3.3 ± 0.61 | -3.64 ± 0.52
17 | UUUAAGCAAUAUUACGUAUC | -4.44 ± 0.59 | –
18 | UACCAGCAAUAUUACGAUAC | -5.03 ± 1 | –
19 | UCUUAGCAAUAUUACGCUGC | -4.21 ± 0.73 | -2.39 ± 0.56
20 | CUACAGCAAUAUUACGCACC | -2.79 ± 1.2 | -2.87 ± 1

Row | Sequence | self-splicing fitness (ln) (30 °C) | self-splicing fitness (ln) (37 °C)
21 | CUUUAGCAAUAUUACGACUC | – | -2.04 ± 0.56
22 | CGGGAGCAAUAUUACGUCAA | -2.14 ± 0.19 | -2.79 ± 0.38
23 | GCCAAGCAAUAUUACGAGUG | -2.32 ± 0.087 | -1.72 ± 0.093
24 | AGCCAGCAAUAUUACGAGGG | -2.58 ± 0.15 | -2.38 ± 0.17
25 | GGUAAGCAAUAUUACGUACC | – | 0.0117 ± 1.2
26 | AACGAGCAAUAUUACGACCG | -3.46 ± 0.34 | -1.84 ± 1.1
27 | GUUUAGCAAUAUUACGACGC | 0.0175 ± 0.18 | -0.0772 ± 0.24
28 | UGAGAGCAAUAUUACGGAUU | – | -2.37 ± 0.55
29 | AUUGAGCAAUAUUACGUCGC | -4.73 ± 1 | –
30 | CGUGAGCAAUAUUACGGUUC | -3.34 ± 0.74 | -4.62 ± 1
31 | ACGGAGCAAUAUUACGGGCA | – | -2.02 ± 0.5
32 | CGGGAGCAAUAUUACGAGUC | -4.04 ± 0.52 | –
33 | CGCAAGCAAUAUUACGGUCC | -1.07 ± 0.076 | -0.628 ± 0.12
34 | CAGGAGCAAUAUUACGGAAC | -3.67 ± 0.43 | -2.53 ± 0.5
35 | UCCUAGCAAUAUUACGAUCU | -4.47 ± 0.73 | –
36 | ACAGAGCAAUAUUACGGAAC | -4.05 ± 0.54 | –
37 | CCUAAGCAAUAUUACGAAUC | – | -3.21 ± 0.6
38 | UGGGAGCAAUAUUACGAAAG | – | -2.8 ± 0.62
39 | CCCUAGCAAUAUUACGACAC | -4.42 ± 0.59 | –
40 | GGGAAGCAAUAUUACGAAUA | -3.36 ± 0.61 | –

Row | Sequence | self-splicing fitness (ln) (30 °C) | self-splicing fitness (ln) (37 °C)
41 | ACUUAGCAAUAUUACGAAGC | -3.14 ± 0.61 | –
42 | AAGGAGCAAUAUUACGAGAC | – | -3.39 ± 0.73
43 | CAGUAGCAAUAUUACGUCGC | -3.06 ± 0.75 | –
44 | UAGGAGCAAUAUUACGGAGC | – | -1.3 ± 0.6
45 | CGAUAGCAAUAUUACGGAUA | -3.02 ± 0.53 | –
46 | GAGGAGCAAUAUUACGUAUA | -4.04 ± 0.73 | –
47 | GCAGAGCAAUAUUACGUUCC | -2.9 ± 0.54 | –
48 | UAAGAGCAAUAUUACGGUAC | -4.09 ± 1 | –
49 | CCUCAGCAAUAUUACGUGGC | -3.94 ± 0.22 | -3.01 ± 0.24
50 | CGUUAGCAAUAUUACGUCUU | -4.03 ± 0.26 | -1.29 ± 0.099
51 | UAUCAGCAAUAUUACGACUA | 0.123 ± 0.068 | 0.517 ± 0.095
52 | CUCCAGCAAUAUUACGGCAU | -3.64 ± 0.6 | –
53 | CUCAAGCAAUAUUACGCUCC | -3.52 ± 1.1 | -2.07 ± 0.57
54 | GGUAAGCAAUAUUACGCCUG | -3.68 ± 0.6 | –
55 | GGUAAGCAAUAUUACGGACC | – | -0.665 ± 0.56
56 | CGGGAGCAAUAUUACGGCGC | -3.97 ± 0.6 | -1.59 ± 0.88
57 | GCUGAGCAAUAUUACGGAGU | -3.87 ± 0.6 | –
58 | AUAUAGCAAUAUUACGCCGC | – | -1.62 ± 1.1

Single records (already shown).
UGAGAGCAAUAUUACGGAUU in the list: self-splicing fitness (ln) (37 °C): -2.37 ± 0.55
CGUUAGCAAUAUUACGUCUU in the list: self-splicing fitness (ln) (30 °C): -4.03 ± 0.26; self-splicing fitness (ln) (37 °C): -1.29 ± 0.099
UAUGAGCAAUAUUACGACUC in the list: self-splicing fitness (ln) (30 °C): -4.17 ± 1.1; self-splicing fitness (ln) (37 °C): -2.18 ± 0.6
